Percent effect of library compounds

The filed quantity is “Percent Effect” (%).
The controls that fix the scale are not given in the record; negative values are as filed.
Compounds were drawn at random from those tested, without regard to their results.
Two or more numbers in one place are separate tests of the same structure; such repeats can differ widely.

Mtb glucose medium: 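Growth of Mycobacterium tuberculosis over 3 days (7H9 medium with glucose and tyloxapol); the read-out is not stated. Concentration: 50 µM. Higher reads as more growth inhibition (inferred: compounds with an IC50 in retests scored well above the rest). About 69,000 compounds were tested under these conditions; 1.1% (about 760) showed 50% or more at least once.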
Mtb cholesterol medium: 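Phenotypic screen: M. tuberculosis growth, cholesterol and DPPC medium, 4 days; the read-out is not stated. Concentration: 50 µM. Higher reads as more growth inhibition (inferred: compounds with an IC50 in retests scored well above the rest). About 69,000 compounds were tested under these conditions; 0.54% (about 370) showed 50% or more at least once.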

compound	Mtb glucose medium	Mtb cholesterol medium
[H][C@]12CC[C@]([H])(CN(S(C)(=O)=O)C1)N(Cc1cscn1)C2=O	-1.545	-8.288
Cc1cccc(CN2CCc3ncnc(N4CCOCC4)c3CC2)n1.O=C(O)C(F)(F)F	-13.83	-14.92
CCc1noc(Cn2c(=O)c3c(C(F)(F)F)cc(C)nc3n2C)n1	44.72	41.88
Cc1ccc(C(=O)NCc2ccnc(C3CCCOC3)n2)s1 (stereo not drawn)	13.53	-5.822 and 20.07
Cc1nn(C)c(C)c1C1COCCN1C(=O)CC(C)(C)C (stereo not drawn)	14.1 and 0.208	-5.66
CCCOc1ccc2c(c1)OCC(C(=O)NC(C)Cn1cccn1)=C2 (stereo not drawn)	24.35	7.228
Cc1ccc(OCCN(C)S(=O)(=O)N2CCOCC2)cc1	-5.389 and -2.527	-19.02
CCC(O)Cn1nc(-c2ccc(C(=O)O)cc2)cc1-c1ccc(F)cc1 (stereo not drawn)	0.1187	-0.604 and -4.031
CN(Cc1cc[nH]n1)C(=O)C1CC(=O)N(Cc2ccncc2)C1 (stereo not drawn)	14.87 and 1.825	0.6995
CCN(CC)CCN(C)c1nc(-c2ccc(Cl)cc2)nc2c1CNC2	-18.03	5.989
CS(=O)(=O)Cc1nc(CN2CCCc3sccc3C2)cs1	-8.83	2.974
COc1c(C2CCCN2C(=O)c2ccc(C(N)=O)s2)c(C)nn1C (stereo not drawn)	-24.09	-11.79
CN1CCOCC2(CCCN(C(=O)Cc3ccncc3)C2)C1.O=C(O)C(F)(F)F (stereo not drawn)	3.823	-13.46
[H][C@@]12CN(C(=O)C3CCOCC3)C[C@]1([H])OCCN2CCN1CCCC1	-6.043 and -31.48	1.418
O=C(CNc1ccc(F)cc1OCC(F)(F)F)NCC(F)(F)F	7.551	3.334 and 1.518
CN1CCN(Cc2cn3c(n2)CNCC3)CC1.Cl.Cl.Cl	-73.79 and 22.07	-61.23
CCN1CCN(Cc2c(C3CCCC3)[nH]c3ncccc23)CC1	9.305	12.18
CC(C)n1ccnc1C1CCN(C(=O)c2ccccc2N(C)C)CC1	-30.11	-8.915 and -25.78
CCC(=O)Nc1ccc(F)c(S(=O)(=O)NC(C)(C)C)c1	-48.39	-17.98
O=C(O)c1cn(-c2ccccn2)c(=O)c2ccccc12	24.74 and -1.926	1.409
O=C(Cc1ccccc1O)NC1CCCN(c2ccccc2F)C1=O (stereo not drawn)	-19.25	-4.251
Cc1cc(N2CCN(Cc3cn(C)nc3C)CC2)cc(C2CCCN2)n1.Cl (stereo not drawn)	-12.75	12.83 and -1.064
COc1cc(CN(C)C(=O)Cc2c(C)nn(C)c2C)ccc1OC(F)F	-3.051 and -3.349	-13.92
CCc1noc(CN(C)C(=O)c2ccnc(OC3CCC3)c2)n1	7.247 and 17.95	11.39
Cc1nn(C)c(Cl)c1C(=O)NCc1cccnc1N1CCOCC1	8.718	6.51
O=C(O)C(F)(F)F.[H][C@]12CN(Cc3cccnc3)C(=O)[C@@]1([H])CN(S(=O)(=O)CC)C2	-42.32	-12.98 and -6.684
CC[C@@H](Cn1ncc2ccccc2c1=O)NC(=O)c1ccco1	5.027	-10.26
Cc1cc(-c2noc(C3CCS(=O)(=O)C3)n2)ccc1F (stereo not drawn)	23.82 and 8.367	12.03
O=C(C[S+]([O-])Cc1c(Cl)cccc1Cl)N1CCc2sccc2C1 (stereo not drawn)	30.71	1.56
O=C1CCCc2nccc(-c3ccccc3)c21	-5.479	-3.431
Cc1ncc(C(=O)NC2CCN(CCOc3ccc(Br)cc3)CC2)s1	6.517	24.16
CC(=O)N[C@@H]1CN(CC(=O)NCc2ccccc2C)C[C@H]1C(C)C	-13.36	-2.47
CC(NC(=O)NCCCn1cccn1)c1ccncc1 (stereo not drawn)	10.09	2.493 and -14.61
N#Cc1cccnc1N1CCCN(C(=O)CCc2nccs2)CC1	-3.416	3.38
O=C(Cc1cnccn1)N1CCC(c2nccn2CC2CC2)CC1	-10.22	5.322 and 6.318
CS(=O)(=O)N1CCN(C(=O)c2cncs2)CC(C(N)=O)C1 (stereo not drawn)	-10.57	8.302 and 1.318
COCCN1CC2(CCCN(Cc3cc(=O)c(OC)co3)C2)CCC1=O (stereo not drawn)	-16.1 and -4.287	-21.63
CN(C)C(=O)c1cccc(CN2CCOC(Cn3cncn3)C2)c1 (stereo not drawn)	-16.39	-29.39
c1ccc(-c2noc(CNC3CCc4ncnn4C3)n2)nc1 (stereo not drawn)	14.29	-1.447
Cc1c(C2CCCN(C(=O)OC(C)(C)C)C2)n2c(nc1=O)CCC2 (stereo not drawn)	-5.25	8.735
Cc1csc(N2CCCN(Cc3ccn(C)c(=O)c3)CC2)n1	-0.3203	-2.277
COc1ccccc1C1CC(=O)Nc2nc(N3CCCCC3)sc21 (stereo not drawn)	49.59	10.38
COc1cccc2c1OCCCN(Cc1ncccc1C(=O)O)C2	-9.534 and -14.1	-11.72
CC(=O)c1cccc(NC(=O)N(CC(F)F)C2CC2)c1	-12.1	-5.289 and -13.83
Cc1ccc(-c2cc(N)c(=O)n(C(C)C(N)=O)n2)o1 (stereo not drawn)	-26.6	7.567 and 5.736
CNc1cc(C)nc(-c2cc(NCCO)nc3[nH]ccc23)n1	-12.08	-15.33
O=C(c1cc(Cn2ccc3ccccc32)[nH]n1)N1CCCCC1CO (stereo not drawn)	-5.6	-22.99
CC(C)c1ccc(OCCC(=O)N2CCC(C(=O)N(C)C)CC2)cc1	35	-3.703
CC(O)c1cn(CC2CCN(C(=O)c3cscn3)CC2)nn1 (stereo not drawn)	-19.55 and -4.888	4.19
O=C(O)C(F)(F)F.O=C1COC2(COCCN(Cc3ccsc3)C2)CN1c1ccoc1 (stereo not drawn)	-36.01	-17.43
NC1CCc2c(ccc(=O)n2Cc2ccncc2)C1 (stereo not drawn)	-34.28	5.741
FC(F)(F)c1[nH]nc2c1CN(Cc1ccccc1)CC2	-26.12	0.03042
O=C(NCc1cccnc1)C1=NOC2(CCN(C3CCOCC3)C2)C1 (stereo not drawn)	3.864 and 15.55	3.766
CC(C)(C)CC(=O)Nc1ncn(CC(=O)NCc2ccccc2)n1	8.844	1.978
N#CCCN(CC1CCOC1)Cn1ccc(-c2ccsc2)n1 (stereo not drawn)	-5.857	6.296
COCCNC(=O)CCC1CCN(Cc2cccc(SC)c2)CC1	1.049 and -10.28	-3.192 and -4.955
COc1ccc(OCC(=O)n2nc(C)c(C)c2C)cc1	-4.998	11.04
CCC(C)N(Cc1cnc(NCC(=O)O)nc1)Cc1ccsc1 (stereo not drawn)	-15.6	7.528
COc1cccc(CN2CCC3(CCN(C(=O)[C@H]4CCCO4)CC3)C2)c1.O=C(O)C(F)(F)F	-27.65	-17.54
O=C(Nc1ccccc1)C1CN(CC2CCOCC2)CC12CCOCC2.O=C(O)C(F)(F)F (stereo not drawn)	-5.621 and -21.12	-26.45
[H][C@@]12CCN(C(=O)c3cscn3)[C@@]1([H])CC(=O)N2Cc1cccnc1	11.29	-13.15
O=c1[nH]c2cc3c(cc2cc1CN1CCCC1c1ccccn1)CCC3 (stereo not drawn)	-31.07	-25.03
CC(C)c1nccc(N2CCN(CC(=O)N3CCOCC3)CC2)n1	30.33	5.311
O=C(NCCCn1cccn1)NCC(c1ccco1)N1CCCC1 (stereo not drawn)	21.66	19.11
Cc1cc(C)n(CC2CCCN2C(=O)CCNc2ncccn2)n1 (stereo not drawn)	3.138	14.55
CNc1cccc(C2CN(C(=O)CNS(C)(=O)=O)CCO2)n1 (stereo not drawn)	-14.03	-17.16
Cc1ccc(OCCN(C)C(C)c2cccc(S(N)(=O)=O)c2)cc1 (stereo not drawn)	7.199	3.211
Cl.Cl.[H][C@@]12OCCC[C@]1([H])NC[C@@H]2NC(=O)c1cccnc1	21.21	-9.704
O=C(NCC1(O)CCOC1)c1ccccc1Cl (stereo not drawn)	13.91	7.728
CCc1nnc(SCc2nonc2C)n1C1CC1	-0.4467 and 2.521	2.754
CCSc1ccc(C(=O)NCCc2nnc(-c3ccco3)[nH]2)cn1	24.74	-9.85 and -4.288
CCOC(=O)C1(Cc2cccc(OC)c2)CCN(Cc2ccon2)CC1	-1.298 and 4.28	15.04
CSCCN1C(=O)CC(C)(c2ccc(Br)cc2)C1=O (stereo not drawn)	24.5	-2.553
CCOCC1CC2(CCN(C(=O)CC3=CCCCC3)CC2)CO1 (stereo not drawn)	-0.4958 and -32.38	-13.12
COc1ccc(-c2nnc(C(C)N3CCOCC3)o2)cc1 (stereo not drawn)	-2.107 and -34.87	-23.83
COc1ccccc1-n1cc(C(=O)NCCCn2nc(C)nc2C)cn1	6.482	3.655
O=C(C1CC=CC1)N1Cc2nccn2CC(CN2CCCC2)C1 (stereo not drawn)	15.32	-23.79
NC(=O)NC1CCN(Cc2ccccc2OCC(F)(F)F)CC1	-12.28	5.707

Once more, the final 6:

{"compound": "CSCCN1C(=O)CC(C)(c2ccc(Br)cc2)C1=O", "stereo": "stereo not drawn", "Mtb glucose medium": 24.5, "Mtb cholesterol medium": -2.553}
{"compound": "CCOCC1CC2(CCN(C(=O)CC3=CCCCC3)CC2)CO1", "stereo": "stereo not drawn", "Mtb glucose medium": "-0.4958 and -32.38", "Mtb cholesterol medium": -13.12}
{"compound": "COc1ccc(-c2nnc(C(C)N3CCOCC3)o2)cc1", "stereo": "stereo not drawn", "Mtb glucose medium": "-2.107 and -34.87", "Mtb cholesterol medium": -23.83}
{"compound": "COc1ccccc1-n1cc(C(=O)NCCCn2nc(C)nc2C)cn1", "Mtb glucose medium": 6.482, "Mtb cholesterol medium": 3.655}
{"compound": "O=C(C1CC=CC1)N1Cc2nccn2CC(CN2CCCC2)C1", "stereo": "stereo not drawn", "Mtb glucose medium": 15.32, "Mtb cholesterol medium": -23.79}
{"compound": "NC(=O)NC1CCN(Cc2ccccc2OCC(F)(F)F)CC1", "Mtb glucose medium": -12.28, "Mtb cholesterol medium": 5.707}

Measurements from “University of Dundee, Small-Polar-MMV Screening Library” (2021), ChEMBL document CHEMBL3988442.